Test results reported in patent US20160003839A1.
Results are given in words; binding and its absence hold for the method and conditions named. For part of these data: Binding can be weak; no strength is given.

What was measured:
[1] = target: Gal-α-(1→3)-Gal-β-(1→4)-GlcNAc-HSA; experiment: NGC microarray, intensity; probe label GGGNHSA
murine laminin (murine) [2] = experiment: competitive ELISA with scFv A4, heat-treated laminin free in solution
[3] = target: Gal-α-(1→3)-Gal-β-(1→4)-GlcNAc-HSA; experiment: direct ELISA, purified scFv on coated NGC
Fetuin = experiment: NGC microarray, intensity
murine laminin (murine) [4] = experiment: direct ELISA on murine laminin
[5] = target: Gal-α-(1→3)-Gal-β-(1→4)-GlcNAc-HSA; experiment: competitive ELISA with scFv A4, trisaccharide NGC free in solution

B1: scFv-A4 (scFv)
scFv: QAALTQPSSVSTNPGGTVKITCSGGNGNYGWYQQKSPGSAPVTVIYSNNKRPSDIPSRFSGSKSGSTATLTITGVQVDDEAVYFCGAYDNTYVGVFGAGTTLTVLGQSSRSSSGGGSSGGGGSAVTLDESGGGLQTPGGGLSLVCKASGFTFSSYSMQWVRQTPGKGLEFVAGIGYSDSYTYFGPAVKGRATISRDNGQNTVRLQLNNLRAEDTATYYCARSADTIYGCTHPWCSADNIDAWGHGTEVIVSSTSGQAGQ
binding [1]: binds | binding (murine laminin (murine) [2]): binds | binding [3]: binds | binding (Fetuin): no binding | binding (murine laminin (murine) [4]): binds | binding [5]: binds
